Patent US20220010018A1 (ALBERT EINSTEIN COLLEGE OF MEDICINE, published 2022)
Results are given in words; binding and its absence hold for the method and conditions named. Some entries that bind do so weakly or less than the wild type.

Assays:
[1] = target: T1, endogenous B7-H3 expressed by human cells (human) (UniProt Q5ZPR3); test: FACS on PC3 and MDA-MB231 cells
T1 sequence: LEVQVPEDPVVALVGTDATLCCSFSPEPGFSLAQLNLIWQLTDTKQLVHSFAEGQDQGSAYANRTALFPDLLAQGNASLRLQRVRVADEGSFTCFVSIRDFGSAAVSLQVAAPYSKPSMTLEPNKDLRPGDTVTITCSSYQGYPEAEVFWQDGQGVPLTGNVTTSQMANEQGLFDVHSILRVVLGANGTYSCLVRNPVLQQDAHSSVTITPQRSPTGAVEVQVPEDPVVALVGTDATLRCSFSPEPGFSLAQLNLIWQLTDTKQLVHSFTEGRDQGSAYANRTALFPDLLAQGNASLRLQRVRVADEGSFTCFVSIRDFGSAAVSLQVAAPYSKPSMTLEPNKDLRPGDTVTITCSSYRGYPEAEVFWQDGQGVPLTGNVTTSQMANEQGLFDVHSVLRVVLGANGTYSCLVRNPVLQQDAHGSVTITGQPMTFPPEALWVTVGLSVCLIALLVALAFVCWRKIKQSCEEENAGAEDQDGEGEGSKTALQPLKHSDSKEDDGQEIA

[2] = target: T1, endogenous B7-H3 expressed by human cells (human); test: flow cytometry (FACS) on PC3 and MDA-MB231 cells with endogenous B7-H3; single staining, antibody concentration not given

B1: monoclonal antibody 8B12 (antibody, IgG3, V domains shown)
VH: QVQLQQPGAELVKPGASVKMSCKASGYTFTSYWITWVKQRPGQGLEWIGDIYPGSGSTNYNEKFKSKATLTVDTSSSTAYMQLSSLTSEDSAVYYCARGGTRFSPFAYWGQGTLVTVSA
VL: DVLMTQTPLSLPVSLGDQASISCRSSQSIVHSNGNTYLEWYLQKPGQSPKLLIYKVSNRFSGVPDRFSGSGSGTDFTLKISRVEAEDLGVYYCFQGSHVPWTFGGGTKLEIKR
notes: Residue limits come from CLM-00006; also called mAb 8B12
- binding [1]: binds
- binding [2]: binds

B2: monoclonal antibody 12B4 (antibody, IgG2b, V domains shown)
VH: QVQLQQPGAELVKPGASVKLSCKASGYTFTSYWMHWVKQRPGQGLEWIGMIHPNSGSTNYNEKFKSKATLTVDKSSSTAYMQLSSLTSEDSAVYYCARYYYGSSYAMDYWGQGTSVTVS
VL: QIVLTQSPAIMSASPGEKVTITCSASSSVSYMHWFQQKPGTSPKLWIYSTSNLASGVPARFSGSGSGTSYSLTISRMEAEDAATYYCQQRSSYPYTFGGGTKLEIKR
notes: Residue limits come from CLM-00006; also called mAb 12B4
- binding [1]: binds
- binding [2]: binds
